Reference: the supplement of paper PMC10331698
± gives the standard deviation of the averaged measurements. Small differences around the control level are noise.

Legend:
Assay in all cases: level (log10 ratio to DMSO vehicle control); higher = higher biomarker level / cell amount than vehicle control
[1] = compound: C=C(C)C(=O)OCCC(F)(F)C(F)(F)C(F)(F)C(F)(F)C(F)(C(F)(F)F)C(F)(F)F [(Perfluoro-5-methylhexyl)ethyl 2-methylprop-2-enoate]; conditions: in DMSO
Description: (§1)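 BioMAP Diversity Plus panel of 12 human primary cell co-culture systems (3C, 4H, LPS, SAg, BT, BF4T, BE3C, CASM3C, HDF3CGF, KF3CT, MyoF, Mphg). Compounds were added 1 h before stimulation and left for 24 h (MyoF 48 h; BT 72 h for soluble read-outs or 6 d for IgG). Biomarkers were read by ELISA, cytotoxicity by SRB, PBMC viability and proliferation by Alamar Blue. Each well value was divided by the mean of 8 DMSO control wells on the same plate and log10 transformed; duplicate blinded samples were tested at 4 concentrations.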

[2] = compound: C=C(C)C(=O)OCCC(F)(F)C(F)(F)C(F)(F)C(F)(F)C(F)(F)C(F)(F)C(F)(F)C(F)(F)F [8:2 Fluorotelomer methacrylate]; conditions: in DMSO
Description: as §1

[3] = compound: COC(=O)CCC(F)(F)C(F)(F)C(F)(F)C(F)(F)F [Methyl 2H,2H,3H,3H-perfluoroheptanoate]; conditions: 2200 nM; in DMSO
Description: as §1

[4] = compound: FC(F)(F)C(F)(F)C(F)(F)C(F)(F)C(F)(F)CCI [1-Iodo-1H,1H,2H,2H-perfluoroheptane]; conditions: 2200 nM; in DMSO
Description: as §1

Octafluoroadipamide = compound: NC(=O)C(F)(F)C(F)(F)C(F)(F)C(F)(F)C(N)=O [Octafluoroadipamide]; conditions: 2200 nM; in DMSO
Description: as §1

Nonafluoropentanamide = compound: NC(=O)C(F)(F)C(F)(F)C(F)(F)C(F)(F)F [Nonafluoropentanamide]; conditions: 2200 nM; in DMSO
Description: as §1

[5] = compound: NS(=O)(=O)C(F)(F)C(F)(F)C(F)(F)C(F)(F)C(F)(F)C(F)(F)F [Perfluorohexanesulfonamide]; conditions: 2200 nM; in DMSO
Description: as §1

Tetrafluorosuccinic acid = compound: O=C(O)C(F)(F)C(F)(F)C(=O)O [Tetrafluorosuccinic acid]; conditions: 2200 nM; in DMSO
Description: as §1

[6] = compound: O=C(O)C(F)(F)C(F)(F)C(F)(F)C(F)(F)C(F)(F)C(F)(F)C(F)(F)C(F)(F)Cl [9-Chloro-perfluorononanoic acid]; conditions: in DMSO
Description: as §1

[7] = compound: O=C(O)CCC(F)(F)C(F)(F)C(F)(F)C(F)(F)C(F)(F)F [2H,2H,3H,3H-Perfluorooctanoic acid]; conditions: 2200 nM; in DMSO
Description: as §1

[8] = compound: O=S(=O)(O)C(F)(F)C(F)(F)OC(F)(F)C(F)(F)F [Perfluoro(2-ethoxyethane)sulfonic acid]; conditions: 2200 nM; in DMSO
Description: as §1

[9] = compound: O=S(=O)(O)CCC(F)(F)C(F)(F)C(F)(F)C(F)(F)C(F)(F)C(F)(F)F [6:2 Fluorotelomer sulfonic acid]; conditions: in DMSO
Description: as §1

Perfluoropinacol = compound: OC(C(F)(F)F)(C(F)(F)F)C(O)(C(F)(F)F)C(F)(F)F [Perfluoropinacol]; conditions: in DMSO
Description: as §1

[10] = compound: OCCC(F)(F)C(F)(F)C(F)(F)C(F)(F)F [4:2 Fluorotelomer alcohol]; conditions: 2200 nM; in DMSO
Description: as §1

Test System | level (log10) ([1]; 740 nM) | level (log10) ([1]; 2200 nM) | level (log10) ([1]; 6700 nM) | level (log10) ([1]; 20000 nM) | level (log10) ([2]; 740 nM) | level (log10) ([2]; 2200 nM) | level (log10) [3] | level (log10) [4] | level (log10) (Octafluoroadipamide) | level (log10) (Nonafluoropentanamide) | level (log10) [5] | level (log10) (Tetrafluorosuccinic acid) | level (log10) ([6]; 2200 nM) | level (log10) ([6]; 6700 nM) | level (log10) ([6]; 20000 nM) | level (log10) [7] | level (log10) [8] | level (log10) ([9]; 2200 nM) | level (log10) ([9]; 6700 nM) | level (log10) ([9]; 20000 nM) | level (log10) ([9]; 60000 nM) | level (log10) (Perfluoropinacol; 2200 nM) | level (log10) (Perfluoropinacol; 6700 nM) | level (log10) (Perfluoropinacol; 20000 nM) | level (log10) [10]
KF3CT:PAI-I | -0.008 ± 0.024 | -0.0185 ± 0.052 | -0.035 ± 0.047 | -0.05 ± 0.018 | 0.001 ± 0.033 | -0.0065 ± 0.016 | -0.0055 ± 0.0064 | -0.008 ± 0.011 | -0.0065 ± 0.012 | 0.0045 ± 0.023 | -0.0085 ± 0.021 | 0.0285 ± 0.012 | -0.001 ± 0.024 | -0.01 ± 0.0057 | -0.101 ± 0.0078 | -0.0055 ± 0.016 | -0.004 ± 0.011 | -0.003 ± 0.0014 | 0.0025 ± 0.0021 | -0.012 ± 0.018 | -0.0135 ± 0.0092 | 0 ± 0.0057 | 0.001 ± 0.0042 | -0.0435 ± 0.012 | -0.0595 ± 0.098
BE3C:CXCL11/I-TAC | 0.018 ± 0.013 | 0.0135 ± 0.013 | 0.005 ± 0.0099 | 0.0105 ± 0.0092 | 0.014 ± 0.082 | 0.001 ± 0.052 | -0.01 ± 0.0042 | 0.01 ± 0.023 | 0.0155 ± 0.016 | 0.015 ± 0.0099 | 0.0095 ± 0.056 | -0.0115 ± 0.011 | 0.0185 ± 0.067 | 0.0515 ± 0.005 | -0.161 ± 0.032 | -0.0045 ± 0.047 | 0.0215 ± 0.00071 | 0.0305 ± 0.036 | 0.037 ± 0.028 | 0.0585 ± 0.00071 | 0.067 ± 0.018 | -0.001 ± 0.0014 | 0.0435 ± 0.00071 | 0.0115 ± 0.021 | 0.0155 ± 0.013
BF4T:IL-1alpha | -0.003 ± 0.0042 | -0.011 ± 0.013 | -0.0155 ± 0.021 | -0.014 ± 0.03 | 0.0005 ± 0.023 | 0.0035 ± 0.012 | 0.0135 ± 0.025 | -0.0085 ± 0.012 | 0.0135 ± 0.025 | -0.011 ± 0.011 | 0.006 ± 0.0071 | 0.04 ± 0.038 | -0.0015 ± 0.005 | 0.0205 ± 0.0035 | -0.023 ± 0.011 | 0.006 ± 0.02 | 0.0105 ± 0.021 | 0.01 ± 0.023 | 0.006 ± 0.0085 | 0.0005 ± 0.0092 | 0.023 ± 0.018 | 0.0085 ± 0.022 | 0.0025 ± 0.012 | -0.025 ± 0.0057 | -0.0015 ± 0.029
BT:sTNF-alpha | 0.117 ± 0.064 | 0.026 ± 0.023 | 0.0485 ± 0.1 | 0.0945 ± 0.03 | 0.032 ± 0.018 | 0.008 ± 0.15 | 0.131 ± 0.05 | 0.064 ± 0.096 | 0.182 ± 0.16 | 0.1 ± 0.078 | 0.0575 ± 0.19 | -0.144 ± 0.071 | -0.004 ± 0.047 | 0.0075 ± 0.011 | 0.0075 ± 0.022 | 0.143 ± 0.14 | 0.0515 ± 0.16 | 0.0125 ± 0.032 | -0.011 ± 0.031 | 0.0335 ± 0.07 | -0.021 ± 0.04 | 0.102 ± 0.11 | 0.0425 ± 0.061 | -0.146 ± 0.015 | -0.059 ± 0.16
3C:CXCL9/MIG | 0.006 ± 0.0028 | -0.007 ± 0.013 | -0.001 ± 0.011 | 0.0045 ± 0.0035 | 0.0015 ± 0.005 | -0.0005 ± 0.0078 | -0.011 ± 0.0099 | -0.004 ± 0.0085 | -0.0015 ± 0.015 | 0.002 ± 0.0085 | -0.0135 ± 0.0078 | -0.0155 ± 0.0078 | 0.007 | -0.005 ± 0.0042 | 0.0065 ± 0.0078 | 0.0005 ± 0.0092 | -0.002 ± 0.0085 | -0.002 ± 0.014 | -0.0065 ± 0.0021 | -0.009 ± 0.017 | -0.006 ± 0.0042 | 0.0015 ± 0.0035 | -0.005 ± 0.013 | -0.014 ± 0.0085 | 0.001 ± 0.013
HDF3CGF:SRB | 0.002 ± 0.0099 | 0.0255 ± 0.0021 | 0.0055 ± 0.0092 | 0.008 ± 0.0028 | -0.014 ± 0.054 | -0.001 ± 0.041 | 0.012 ± 0.073 | 0.0075 ± 0.023 | -0.0275 ± 0.00071 | -0.004 ± 0.028 | -0.024 ± 0.0057 | -0.018 ± 0.0071 | 0.047 ± 0.023 | 0.081 ± 0.016 | 0.065 ± 0.033 | -0.009 ± 0.025 | -0.039 ± 0.038 | 0.0065 ± 0.0021 | 0.0055 ± 0.044 | 0.0255 ± 0.056 | 0.023 ± 0.085 | -0.0065 ± 0.012 | -0.027 ± 0.0042 | -0.0055 ± 0.039 | -0.008 ± 0.027
3C:CD142/Tissue Factor | 0.0145 ± 0.011 | 0.018 ± 0.027 | 0.0205 ± 0.015 | -0.0295 ± 0.046 | 0.049 ± 0.023 | 0.041 ± 0.024 | -0.0515 ± 0.0078 | 0.0065 ± 0.011 | -0.0035 ± 0.1 | -0.0035 ± 0.035 | 0.0045 ± 0.011 | -0.014 ± 0.058 | 0.001 ± 0.0014 | -0.008 ± 0.057 | 0.025 ± 0.0057 | 0.0105 ± 0.052 | 0.0255 ± 0.039 | 0.0095 ± 0.033 | -0.0065 ± 0.029 | 0.006 ± 0.021 | 0.0155 ± 0.064 | -0.0365 ± 0.018 | -0.0805 ± 0.026 | -0.158 ± 0.0035 | 0.0105 ± 0.032
LPS:SRB | 0.0015 ± 0.0092 | 0.0015 ± 0.0021 | -0.001 ± 0.0028 | -0.0085 ± 0.0021 | 0.006 ± 0.0042 | -0.0025 ± 0.0092 | 0.0005 ± 0.015 | 0.0005 ± 0.013 | -0.001 ± 0.0057 | 0.0055 ± 0.0078 | -0.002 ± 0.0028 | -0.0035 ± 0.005 | 0.005 ± 0.0014 | 0.0015 ± 0.012 | -0.0035 ± 0.013 | -0.0075 ± 0.021 | -0.0065 ± 0.0078 | -0.0015 ± 0.013 | -0.0055 ± 0.00071 | -0.0005 ± 0.0064 | -0.001 ± 0.023 | 0.0015 ± 0.00071 | -0.0265 ± 0.0021 | -0.151 ± 0.0064 | -0.006
lMphg:SRB-Mphg | 0.0075 ± 0.005 | 0.005 ± 0.0071 | 0.0015 ± 0.011 | -0.0095 ± 0.021 | 0.017 ± 0.02 | 0.0065 ± 0.0064 | 0.004 ± 0.02 | 0.011 ± 0.013 | 0.013 ± 0.041 | -0.0035 ± 0.013 | 0.005 ± 0.0085 | 0.013 ± 0.0071 | -0.002 ± 0.0085 | 0.01 ± 0.0042 | 0.0055 ± 0.018 | 0.0045 ± 0.0021 | 0.012 ± 0.0042 | 0.0085 ± 0.00071 | 0.0065 ± 0.0064 | 0.0135 ± 0.0078 | 0.0025 ± 0.036 | 0.0015 ± 0.0092 | -0.015 ± 0.0099 | -0.05 ± 0.0028 | -0.016 ± 0.11
SAg:Proliferation | 0.0315 ± 0.043 | 0.05 ± 0.0085 | 0.011 ± 0.0085 | 0.009 ± 0.018 | 0.0015 ± 0.013 | 0.003 ± 0.04 | 0.0235 ± 0.011 | -0.013 ± 0.068 | 0.001 ± 0.0099 | 0.0575 ± 0.025 | -0.0055 ± 0.086 | -0.033 ± 0.083 | -0.052 ± 0.021 | -0.036 ± 0.033 | 0.02 ± 0.02 | -0.026 ± 0.061 | -0.002 ± 0.033 | -0.037 ± 0.05 | -0.019 ± 0.027 | -0.0255 ± 0.023 | -0.0225 ± 0.0035 | 0.02 ± 0.0014 | 0.0035 ± 0.093 | -0.163 ± 0.021 | -0.0035 ± 0.016

Part of the list above, comma-delimited:
Test System,level (log10) ([1]; 740 nM),level (log10) ([1]; 2200 nM),level (log10) ([1]; 6700 nM),level (log10) ([1]; 20000 nM),level (log10) ([2]; 740 nM),level (log10) ([2]; 2200 nM),level (log10) [3],level (log10) [4],level (log10) (Octafluoroadipamide),level (log10) (Nonafluoropentanamide),level (log10) [5],level (log10) (Tetrafluorosuccinic acid),level (log10) ([6]; 2200 nM),level (log10) ([6]; 6700 nM),level (log10) ([6]; 20000 nM),level (log10) [7],level (log10) [8],level (log10) ([9]; 2200 nM),level (log10) ([9]; 6700 nM),level (log10) ([9]; 20000 nM),level (log10) ([9]; 60000 nM),level (log10) (Perfluoropinacol; 2200 nM),level (log10) (Perfluoropinacol; 6700 nM),level (log10) (Perfluoropinacol; 20000 nM),level (log10) [10]
LPS:SRB,0.0015 ± 0.0092,0.0015 ± 0.0021,-0.001 ± 0.0028,-0.0085 ± 0.0021,0.006 ± 0.0042,-0.0025 ± 0.0092,0.0005 ± 0.015,0.0005 ± 0.013,-0.001 ± 0.0057,0.0055 ± 0.0078,-0.002 ± 0.0028,-0.0035 ± 0.005,0.005 ± 0.0014,0.0015 ± 0.012,-0.0035 ± 0.013,-0.0075 ± 0.021,-0.0065 ± 0.0078,-0.0015 ± 0.013,-0.0055 ± 0.00071,-0.0005 ± 0.0064,-0.001 ± 0.023,0.0015 ± 0.00071,-0.0265 ± 0.0021,-0.151 ± 0.0064,-0.006
lMphg:SRB-Mphg,0.0075 ± 0.005,0.005 ± 0.0071,0.0015 ± 0.011,-0.0095 ± 0.021,0.017 ± 0.02,0.0065 ± 0.0064,0.004 ± 0.02,0.011 ± 0.013,0.013 ± 0.041,-0.0035 ± 0.013,0.005 ± 0.0085,0.013 ± 0.0071,-0.002 ± 0.0085,0.01 ± 0.0042,0.0055 ± 0.018,0.0045 ± 0.0021,0.012 ± 0.0042,0.0085 ± 0.00071,0.0065 ± 0.0064,0.0135 ± 0.0078,0.0025 ± 0.036,0.0015 ± 0.0092,-0.015 ± 0.0099,-0.05 ± 0.0028,-0.016 ± 0.11
